This passage reports binding results from paper PMC9335328.

Protein sequences, listed by entry. Tags and fused reporters are not part of them. Lines headed by an entry give the natural chain unless they say otherwise; changes in a name come on top.
UniProt P98161: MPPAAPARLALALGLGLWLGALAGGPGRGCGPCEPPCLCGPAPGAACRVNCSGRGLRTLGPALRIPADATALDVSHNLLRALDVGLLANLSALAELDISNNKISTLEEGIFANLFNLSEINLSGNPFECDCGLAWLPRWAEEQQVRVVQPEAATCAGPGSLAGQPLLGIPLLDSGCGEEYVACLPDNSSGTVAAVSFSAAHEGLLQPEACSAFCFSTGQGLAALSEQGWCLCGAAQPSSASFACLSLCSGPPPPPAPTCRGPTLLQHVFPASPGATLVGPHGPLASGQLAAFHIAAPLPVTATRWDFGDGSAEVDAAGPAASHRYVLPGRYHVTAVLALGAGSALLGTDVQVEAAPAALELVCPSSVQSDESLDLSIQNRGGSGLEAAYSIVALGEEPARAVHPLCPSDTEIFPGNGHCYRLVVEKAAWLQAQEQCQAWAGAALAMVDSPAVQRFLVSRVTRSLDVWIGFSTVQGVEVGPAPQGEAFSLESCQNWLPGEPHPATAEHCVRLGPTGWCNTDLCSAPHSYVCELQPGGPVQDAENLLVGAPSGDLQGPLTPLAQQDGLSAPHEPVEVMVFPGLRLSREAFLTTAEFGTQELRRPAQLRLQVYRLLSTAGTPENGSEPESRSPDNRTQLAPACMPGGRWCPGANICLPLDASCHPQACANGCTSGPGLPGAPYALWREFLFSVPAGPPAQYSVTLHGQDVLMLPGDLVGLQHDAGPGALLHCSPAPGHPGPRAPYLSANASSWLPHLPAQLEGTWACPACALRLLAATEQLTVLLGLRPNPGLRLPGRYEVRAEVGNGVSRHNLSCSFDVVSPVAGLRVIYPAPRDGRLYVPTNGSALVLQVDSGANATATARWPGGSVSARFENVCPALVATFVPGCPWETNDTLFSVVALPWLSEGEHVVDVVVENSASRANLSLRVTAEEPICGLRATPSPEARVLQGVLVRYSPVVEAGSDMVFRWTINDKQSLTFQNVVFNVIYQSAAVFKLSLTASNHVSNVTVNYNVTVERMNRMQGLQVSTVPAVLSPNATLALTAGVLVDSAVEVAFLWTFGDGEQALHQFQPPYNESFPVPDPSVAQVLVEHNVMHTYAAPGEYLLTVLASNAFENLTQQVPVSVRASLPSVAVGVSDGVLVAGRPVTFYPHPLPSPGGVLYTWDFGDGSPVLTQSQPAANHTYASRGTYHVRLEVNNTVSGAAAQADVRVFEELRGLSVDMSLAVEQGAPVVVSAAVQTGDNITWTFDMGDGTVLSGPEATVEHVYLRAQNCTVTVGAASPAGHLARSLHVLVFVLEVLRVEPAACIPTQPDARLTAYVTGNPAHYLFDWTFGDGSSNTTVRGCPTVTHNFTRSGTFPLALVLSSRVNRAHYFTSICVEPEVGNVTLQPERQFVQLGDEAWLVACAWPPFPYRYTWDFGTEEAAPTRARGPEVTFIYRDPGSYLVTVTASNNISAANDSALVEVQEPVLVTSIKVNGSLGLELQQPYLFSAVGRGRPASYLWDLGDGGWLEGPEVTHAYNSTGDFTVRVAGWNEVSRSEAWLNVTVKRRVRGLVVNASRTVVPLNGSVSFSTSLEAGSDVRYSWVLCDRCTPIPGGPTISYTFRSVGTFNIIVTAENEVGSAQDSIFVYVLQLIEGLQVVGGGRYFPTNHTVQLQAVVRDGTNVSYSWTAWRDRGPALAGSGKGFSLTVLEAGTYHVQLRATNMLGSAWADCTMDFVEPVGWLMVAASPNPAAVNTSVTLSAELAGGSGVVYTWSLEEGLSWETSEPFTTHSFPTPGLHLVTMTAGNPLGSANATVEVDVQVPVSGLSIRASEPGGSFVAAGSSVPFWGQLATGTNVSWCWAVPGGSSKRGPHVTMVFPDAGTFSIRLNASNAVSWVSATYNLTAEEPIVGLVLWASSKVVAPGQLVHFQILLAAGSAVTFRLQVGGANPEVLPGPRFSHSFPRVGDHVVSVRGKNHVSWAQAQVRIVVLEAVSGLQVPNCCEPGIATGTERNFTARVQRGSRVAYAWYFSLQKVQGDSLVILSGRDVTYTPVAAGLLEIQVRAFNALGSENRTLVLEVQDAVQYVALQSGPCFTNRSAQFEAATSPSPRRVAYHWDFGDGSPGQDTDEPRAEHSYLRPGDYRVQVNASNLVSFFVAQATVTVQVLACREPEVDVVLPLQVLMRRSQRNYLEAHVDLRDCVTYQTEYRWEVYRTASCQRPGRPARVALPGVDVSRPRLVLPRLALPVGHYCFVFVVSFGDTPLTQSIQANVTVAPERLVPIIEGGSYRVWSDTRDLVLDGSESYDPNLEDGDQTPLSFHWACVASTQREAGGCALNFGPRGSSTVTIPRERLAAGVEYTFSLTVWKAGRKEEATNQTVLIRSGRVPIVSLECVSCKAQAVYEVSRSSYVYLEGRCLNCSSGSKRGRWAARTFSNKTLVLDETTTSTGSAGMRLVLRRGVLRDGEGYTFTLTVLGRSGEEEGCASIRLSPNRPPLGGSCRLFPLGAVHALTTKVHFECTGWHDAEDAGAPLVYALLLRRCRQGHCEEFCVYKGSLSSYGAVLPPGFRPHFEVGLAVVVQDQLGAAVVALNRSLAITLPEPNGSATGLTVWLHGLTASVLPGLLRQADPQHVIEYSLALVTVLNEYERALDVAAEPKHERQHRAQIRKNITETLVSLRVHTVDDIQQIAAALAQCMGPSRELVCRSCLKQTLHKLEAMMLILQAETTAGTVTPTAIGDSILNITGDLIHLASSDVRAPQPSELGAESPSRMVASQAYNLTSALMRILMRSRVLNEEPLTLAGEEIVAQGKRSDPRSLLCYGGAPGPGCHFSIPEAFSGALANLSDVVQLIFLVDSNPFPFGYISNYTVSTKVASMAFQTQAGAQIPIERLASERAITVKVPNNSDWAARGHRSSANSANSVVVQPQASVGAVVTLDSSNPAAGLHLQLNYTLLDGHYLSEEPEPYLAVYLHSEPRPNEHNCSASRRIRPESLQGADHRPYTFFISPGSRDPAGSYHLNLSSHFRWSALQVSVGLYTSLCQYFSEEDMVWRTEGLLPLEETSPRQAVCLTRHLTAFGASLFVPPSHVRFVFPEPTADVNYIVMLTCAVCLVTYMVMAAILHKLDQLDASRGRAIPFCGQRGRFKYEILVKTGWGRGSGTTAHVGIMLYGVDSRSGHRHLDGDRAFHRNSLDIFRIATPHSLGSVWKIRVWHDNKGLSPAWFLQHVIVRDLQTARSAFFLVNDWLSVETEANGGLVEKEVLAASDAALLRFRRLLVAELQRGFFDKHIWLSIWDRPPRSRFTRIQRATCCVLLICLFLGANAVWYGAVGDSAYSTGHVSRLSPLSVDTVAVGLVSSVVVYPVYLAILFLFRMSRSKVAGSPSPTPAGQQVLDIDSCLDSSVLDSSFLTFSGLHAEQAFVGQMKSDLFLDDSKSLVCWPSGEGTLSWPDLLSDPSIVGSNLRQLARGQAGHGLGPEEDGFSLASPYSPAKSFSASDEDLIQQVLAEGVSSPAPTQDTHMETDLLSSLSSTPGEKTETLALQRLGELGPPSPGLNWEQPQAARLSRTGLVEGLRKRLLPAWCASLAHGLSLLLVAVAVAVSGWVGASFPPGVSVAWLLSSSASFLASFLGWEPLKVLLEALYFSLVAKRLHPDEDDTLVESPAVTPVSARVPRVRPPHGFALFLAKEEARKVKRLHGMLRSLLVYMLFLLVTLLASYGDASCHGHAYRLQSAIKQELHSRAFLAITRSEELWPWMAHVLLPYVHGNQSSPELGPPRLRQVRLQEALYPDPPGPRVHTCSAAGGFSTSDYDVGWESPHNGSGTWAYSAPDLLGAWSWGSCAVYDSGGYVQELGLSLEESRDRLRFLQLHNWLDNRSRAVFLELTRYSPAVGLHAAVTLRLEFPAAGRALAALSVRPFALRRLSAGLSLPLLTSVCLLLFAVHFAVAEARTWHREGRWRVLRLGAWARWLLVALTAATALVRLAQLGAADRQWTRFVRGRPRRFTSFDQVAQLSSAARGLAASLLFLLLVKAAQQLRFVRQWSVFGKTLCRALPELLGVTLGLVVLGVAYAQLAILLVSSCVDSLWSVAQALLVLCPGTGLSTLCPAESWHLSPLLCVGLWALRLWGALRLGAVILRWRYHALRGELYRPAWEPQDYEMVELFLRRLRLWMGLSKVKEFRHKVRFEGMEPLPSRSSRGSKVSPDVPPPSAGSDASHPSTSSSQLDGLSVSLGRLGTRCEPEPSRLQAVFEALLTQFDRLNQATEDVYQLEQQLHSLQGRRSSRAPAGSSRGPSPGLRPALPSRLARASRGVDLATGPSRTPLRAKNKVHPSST
UniProt P09217: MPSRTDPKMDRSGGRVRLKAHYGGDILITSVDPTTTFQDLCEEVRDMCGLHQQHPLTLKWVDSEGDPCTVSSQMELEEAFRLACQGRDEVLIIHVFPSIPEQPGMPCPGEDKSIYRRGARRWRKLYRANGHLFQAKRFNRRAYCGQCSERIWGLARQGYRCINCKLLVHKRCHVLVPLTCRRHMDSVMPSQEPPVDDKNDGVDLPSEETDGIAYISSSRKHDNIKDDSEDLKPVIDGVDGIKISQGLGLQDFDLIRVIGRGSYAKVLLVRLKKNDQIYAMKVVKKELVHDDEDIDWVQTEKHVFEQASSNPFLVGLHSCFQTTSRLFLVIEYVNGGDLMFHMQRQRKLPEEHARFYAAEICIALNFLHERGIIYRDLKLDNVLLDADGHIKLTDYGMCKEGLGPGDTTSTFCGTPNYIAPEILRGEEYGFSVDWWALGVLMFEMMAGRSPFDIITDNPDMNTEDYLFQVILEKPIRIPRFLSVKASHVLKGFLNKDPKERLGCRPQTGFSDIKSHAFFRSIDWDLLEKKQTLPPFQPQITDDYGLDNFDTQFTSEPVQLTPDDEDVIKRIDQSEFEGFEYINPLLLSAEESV

These are yes or no findings as the source states them, for the method shown. In cells and extracts the contact can be indirect. Binding can be weak; no strength is given.

This experiment concerns the target C-terminal cytoplasmic PC1 tail with a C-terminal GST tag (PC1-p30-GST) (UniProt P98161). Kind of experiment: pull-down; HEK293T cells co-transfected with PC1-p30-GST or GST and FLAG-PKCζ or myr-PKCζ-FLAG; lysates precipitated with glutathione-agarose, Western blot; lysis buffer 10 mM Tris-HCl pH 7.4, 150 mM NaCl, 1% Triton X-100, 4 °C, 1 h.

With “FLAG-PKCζ (from UniProt P09217 1-592) (enzyme)”, the binding entry is “binds”.
